From a melanoma drug combination screen (doi:10.1371/journal.pone.0140310); values rounded.

First drug in all entries: FK866, 0.05 µM, O=C(/C=C/c1cccnc1)NCCCCC1CCN(C(=O)c2ccccc2)CC1

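The test systems are human melanoma cell lines, treated with two drugs together for 72 h and then stained and imaged. The read-out is the fraction of cleaved-PARP-positive nuclei, in % of that fraction in the DMSO control; 200 means twice the control level of this apoptosis marker. Every drug was used at one fixed concentration, the higher of two screened. These are primary screening values without error estimates. The marker varies much from line to line, for technical or biological reasons.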 Only some of the drugs and lines screened are listed, without regard to their results. An entry leaves out what has no value listed here.

Results for NCC(=O)Nc1ccc(-n2nc(C(F)(F)F)cc2-c2ccc3c(ccc4ccccc43)c2)cc1 at 5 µM are WM451Lu: 87.5; RVH-421: 357; UACC-62: 102; IST-MEL1: 171; WM1745: 78.9. Oc1nc(-c2ccc(C(F)(F)F)cc2)nc2c1CSCC2 at 10 µM gave WM451Lu: 157; RVH-421: 68.5; UACC-62: 189; IST-MEL1: 190. Results for Nc1ncn([C@H]2C[C@H](O)[C@@H](CO)O2)c(=O)n1 at 0.5 µM are WM451Lu: 52.8; RVH-421: 1340; UACC-62: 187; IST-MEL1: 531; WM1745: 118. Cc1cc([N+](=O)[O-])ccc1NS(=O)(=O)c1cc(Cl)ccc1Cl at 5 µM gave WM451Lu: 25.0; RVH-421: 101; UACC-62: 91.8; IST-MEL1: 104.

Results for Cc1cc(Nc2cc(N3CCN(C)CC3)nc(/C=C/c3ccccc3)n2)n[nH]1 at 0.2 µM are WM451Lu: 204; RVH-421: 1830; UACC-62: 262; IST-MEL1: 110; WM1745: 177. Results for Cc1ccc(NC(=O)c2cccc(N(C)C)c2)cc1NC(=O)c1ccc(O)cc1 at 10 µM are WM451Lu: 97.6; RVH-421: 163; UACC-62: 94.6; IST-MEL1: 189; WM1745: 67.7. Results for Cc1nc(Nc2ncc(C(=O)Nc3c(C)cccc3Cl)s2)cc(N2CCN(CCO)CC2)n1 at 0.02 µM are WM451Lu: 227; RVH-421: 3450; UACC-62: 173; IST-MEL1: 194; WM1745: 149. Results for CCN(CC)CCCCNc1ncc2cc(-c3cc(OC)cc(OC)c3)c(NC(=O)NC(C)(C)C)nc2n1 at 0.5 µM are WM451Lu: 102; RVH-421: 208; UACC-62: 279; IST-MEL1: 115.

With N.N.[Cl][Pt][Cl] at 8 µM the screen read WM451Lu: 104; RVH-421: 1880; UACC-62: 193; IST-MEL1: 729; WM1745: 153. For Cc1cc(Nc2cc(N3CCN(C)CC3)nc(Sc3ccc(NC(=O)C4CC4)cc3)n2)n[nH]1 at 0.03 µM the values were WM451Lu: 485; RVH-421: 976; UACC-62: 141; IST-MEL1: 79.8; WM1745: 170. Results for CC[C@]1(O)C[C@H]2CN(CCc3c([nH]c4ccccc34)[C@@](C(=O)OC)(c3cc4c(cc3OC)N(C=O)[C@H]3[C@@](O)(C(=O)OC)[C@H](OC(C)=O)[C@]5(CC)C=CCN6CC[C@]43[C@@H]65)C2)C1 at 0.0005 µM are WM451Lu: 159; RVH-421: 146; UACC-62: 314; IST-MEL1: 346; WM1745: 80.6. CO[C@@H]1[C@H](N(C)C(=O)c2ccccc2)C[C@H]2O[C@]1(C)n1c3ccccc3c3c4c(c5c6ccccc6n2c5c31)C(=O)NC4 at 0.4 µM gave WM451Lu: 71.2; RVH-421: 291; UACC-62: 117; IST-MEL1: 266; WM1745: 237.

Results for C[C@@H]1CCN(C(=O)CC#N)C[C@@H]1N(C)c1ncnc2[nH]ccc12 at 5 µM are WM451Lu: 266; RVH-421: 516; UACC-62: 104; IST-MEL1: 167; WM1745: 108. Results for O=c1[nH]nc(Sc2ncc([N+](=O)[O-])s2)n1-c1ccc2c(c1)OCCO2 at 1 µM are WM451Lu: 158; RVH-421: 251; UACC-62: 162; IST-MEL1: 177; WM1745: 88.1. With CN(c1ncccc1CNc1nc(Nc2ccc3c(c2)CC(=O)N3)ncc1C(F)(F)F)S(C)(=O)=O at 0.4 µM the screen read WM451Lu: 137; RVH-421: 816; UACC-62: 296; IST-MEL1: 258; WM1745: 110. Results for COc1ccc(-c2ccc3c(N4CCOCC4)nc(N4C[C@@H](C)O[C@@H](C)C4)nc3n2)cc1CO at 0.1 µM are WM451Lu: 197; RVH-421: 151; UACC-62: 137; IST-MEL1: 74.8.

With CCCS(=O)(=O)Nc1ccc(F)c(C(=O)c2c[nH]c3ncc(Cl)cc23)c1F at 0.4 µM the screen read WM451Lu: 122; RVH-421: 255; UACC-62: 233; IST-MEL1: 93.2; WM1745: 120. C#Cc1cccc(Nc2ncnc3cc(OCCOC)c(OCCOC)cc23)c1 at 4 µM gave WM451Lu: 89.1; RVH-421: 585; UACC-62: 269; IST-MEL1: 117; WM1745: 209. Results for C[C@@H](Oc1cc(-c2cnn(C3CCNCC3)c2)cnc1N)c1c(Cl)ccc(F)c1Cl at 1 µM are WM451Lu: 110; RVH-421: 1100; UACC-62: 97.0; IST-MEL1: 205; WM1745: 125. For Cc1cc(SCc2sc(-c3ccc(C(F)(F)F)c(F)c3)nc2C)ccc1OCC(=O)O at 10 µM the values were WM451Lu: 32.5; RVH-421: 105; UACC-62: 24.1; IST-MEL1: 78.8.

For O=C(CCCCCCC(=O)Nc1ccccc1)NO at 0.4 µM the values were WM451Lu: 42.1; RVH-421: 31.8; UACC-62: 99.5; IST-MEL1: 70.8; WM1745: 312. C=C(c1ccc(C(=O)O)cc1)c1cc2c(cc1C)C(C)(C)CCC2(C)C at 10 µM gave WM451Lu: 38.5; RVH-421: 1340; UACC-62: 92.8; IST-MEL1: 72.2; WM1745: 104. NC1(c2ccc(-c3nc4ccn5c(=O)[nH]nc5c4cc3-c3ccccc3)cc2)CCC1 at 2 µM gave WM451Lu: 170; RVH-421: 1250; UACC-62: 310; IST-MEL1: 73.3; WM1745: 96.9. For Cc1cc(N2CCOCC2)cc2[nH]c(-c3c(NC[C@@H](O)c4cccc(Cl)c4)cc[nH]c3=O)nc12 at 1 µM the values were WM451Lu: 146; RVH-421: 548; UACC-62: 69.1; IST-MEL1: 184; WM1745: 154.

With CN(NC(=O)CC(=O)NN(C)C(=S)c1ccccc1)C(=S)c1ccccc1 at 0.03 µM the screen read WM451Lu: 81.4; RVH-421: 478; UACC-62: 148; IST-MEL1: 415; WM1745: 171. COc1ccc(C2=N[C@@H](c3ccc(Cl)cc3)[C@@H](c3ccc(Cl)cc3)N2C(=O)N2CCNC(=O)C2)c(OC(C)C)c1 at 0.5 µM gave WM451Lu: 67.4; RVH-421: 543; UACC-62: 191; IST-MEL1: 89.7; WM1745: 84.0. Results for C/C(O)=C(\C#N)C(=O)Nc1cc(Br)ccc1Br at 10 µM are WM451Lu: 47.7; RVH-421: 286; UACC-62: 159; IST-MEL1: 141. Results for O=C(Oc1ccc([N+](=O)[O-])cc1)N1CCC(C(O)(c2ccc3c(c2)OCO3)c2ccc3c(c2)OCO3)CC1 at 5 µM are WM451Lu: 231; RVH-421: 697; UACC-62: 116; IST-MEL1: 58.8.

For Clc1ccc(Nc2nnc(Cc3ccncc3)c3ccccc23)cc1 at 10 µM the values were WM451Lu: 372; RVH-421: 306; UACC-62: 209; IST-MEL1: 105; WM1745: 131. With CS(=O)(=O)c1ccc(C(=O)Nc2ccc(Cl)c(-c3ccccn3)c2)c(Cl)c1 at 5 µM the screen read WM451Lu: 71.1; RVH-421: 273; UACC-62: 197; IST-MEL1: 299; WM1745: 97.1. For NC(=O)c1ccc(N(C(N)=O)c2c(F)cccc2F)nc1-c1ccc(F)cc1F at 2 µM the values were WM451Lu: 88.3; RVH-421: 690; UACC-62: 136; IST-MEL1: 164; WM1745: 118. For Cn1cnc2c(F)c(Nc3ccc(Br)cc3Cl)c(C(=O)NOCCO)cc21 at 0.075 µM the values were WM451Lu: 159; RVH-421: 134; UACC-62: 240; IST-MEL1: 230; WM1745: 118.

NC(=O)Nc1cc(-c2cccc(F)c2)sc1C(=O)N[C@H]1CCCNC1 at 0.1 µM gave WM451Lu: 97.9; RVH-421: 1130; UACC-62: 165; IST-MEL1: 223; WM1745: 81.4. For CS(=O)(=O)CCNCc1ccc(-c2ccc3ncnc(Nc4ccc(OCc5cccc(F)c5)c(Cl)c4)c3c2)o1 at 4 µM the values were WM451Lu: 172; RVH-421: 277; UACC-62: 229; IST-MEL1: 157; WM1745: 110. CC(C)(C)c1cnc(CSc2cnc(NC(=O)C3CCNCC3)s2)o1 at 0.05 µM gave WM451Lu: 122; RVH-421: 137; UACC-62: 127; IST-MEL1: 83.8; WM1745: 96.3. Results for Cn1cc(/C=C2\C(=O)Nc3cccnc32)c2ccccc21 at 2 µM are WM451Lu: 33.4; RVH-421: 406; UACC-62: 98.0; IST-MEL1: 69.7.